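Luminescence from an EWS-FLI1 target-promoter (NR0B1) reporter, set against a CMV-promoter reporter, two days after silencing single genes in TC32 Ewing sarcoma cells. Each siRNA was applied at 20 nM. A z-score of the log NR0B1-over-CMV signal, less the median of siRNAs with the same seed; more negative means a stronger specific loss of the NR0B1 reporter.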

This is part of the screen; most of the strongest results are not listed here. Sequences are the guide (antisense) strand, without overhang.

UAUAAAGAGAAGUCUAGAU against FHL3 read seed-corrected z-score 0.2531. UUGUUGAGAAAAUGGAUCC against BHMG1 gave seed-corrected z-score -0.7526. With UUUCUGUAUAUUAAGCAAG against SLC35G1 the assay gave seed-corrected z-score -0.002581. For UCCAACUCCAGUCAUUUCC against ENOX2 the result was seed-corrected z-score -0.3057. Result for AUACGUCUAAAGGUAAAGG against RBM45 was seed-corrected z-score 0.4351. ACACUAACAUGCAAAGUCC against UBALD1 gave seed-corrected z-score 0.3606. For UAUACAGUAGCAUCUUUAC against GDI1 the result was seed-corrected z-score 0.3598.

Result for UAAGUUUUGUCGGAUCAAC against FAM177A1 was seed-corrected z-score 0.5984. With UGAAAAAUCAGAGACACUC against CENPVP1 the assay gave seed-corrected z-score 0.3398. With AAAGGUUAACAUCCGGUCC against MAPK3 the assay gave seed-corrected z-score 0.8994. UUUGAACAUCCAGUACUCC against SLC29A3 read seed-corrected z-score 0.8801. UAACUGAGUUCGAUAGGUC against SKP2 gave seed-corrected z-score -1.26. For UUAACUGAGAUGAUAAUCC against HVCN1 the result was seed-corrected z-score 0.2095. UCUGUGGUGAAUCCAAUCU against OGDHL read seed-corrected z-score -1.111.

With AAAGGUGGUGUCGAACUUG against SIRT6 the assay gave seed-corrected z-score -0.6201. With AAUGUGCAUGGGAAUAUGG against FADS1 the assay gave seed-corrected z-score 0.193. UAUAGAAGAGGAGCACUGC against OR51S1 gave seed-corrected z-score 1.062. With UUGGAAGACAGGAUUAGCA against KRTAP5-4 the assay gave seed-corrected z-score 0.389. AUUGAGUUUACUAUUAUCA against IER3IP1 gave seed-corrected z-score 0.4513. Result for UCACGUACUGCUGGUGCUC against GPER1 was seed-corrected z-score -0.5867. UGGGAGUCCAGCAUGUUCC against GAL3ST1 read seed-corrected z-score -0.5643.

With UAACUUAUCAGAGUCAUUC against DFNA5 the assay gave seed-corrected z-score 0.7953. UAACUUAAAGUAUCUCCAU against SPRYD3 read seed-corrected z-score 0.5921. Result for UGCGAUGAUACCACUUUGC against C9orf114 was seed-corrected z-score 0.7271. CAGGUCAAGGCAGUAAACC against LOC731075 read seed-corrected z-score -0.4614. Result for AAACAUUAUGGAGUUGUGA against LOC100505502 was seed-corrected z-score 1.294. With UUACGGGUCAGGGUCUUAG against NCLN the assay gave seed-corrected z-score 2.043. With UUCCGUAUCUGUUCAUUCC against GOLGA1 the assay gave seed-corrected z-score 0.25.

Result for UCCUCGAUAAACAACAUCC against MED21 was seed-corrected z-score 0.09754. UUAAUCGUCAGGACAGGUG against EPHA3 read seed-corrected z-score 0.5732. For AUUGUCAUCGAACCACAUC against TSPAN9 the result was seed-corrected z-score 0.7778. UUCAGGAUACUCUUCAUGU against TMEM72 read seed-corrected z-score 1.206. With UUCUUCUGGACUUUGGUUC against GLTSCR2 the assay gave seed-corrected z-score 0.3524. For UCGCAUGUCACUCAGGAUC against KRT19 the result was seed-corrected z-score -1.831. UUUCUUACCGUGAAGAAUU against RAB6A gave seed-corrected z-score -0.567.

Result for UUUUGAACGAAAUCUUCCC against CETN2 was seed-corrected z-score 0.769. AAUCGUUUCAGUCAGGCUC against CDR2 gave seed-corrected z-score -0.4845. UCAUUGAUGGGAGCAAAGC against UHRF1 read seed-corrected z-score -0.9978. Result for UACGGUAAGCGGAGUCUGU against LOC728283 was seed-corrected z-score -0.4719. For AAGAGGAUAGAGAAAAGGC against EI24 the result was seed-corrected z-score -0.3331. With UUUACUCUUCUUCACACGC against MCRS1 the assay gave seed-corrected z-score 0.4445. AAAGGUCUGAGGGAAUCUG against MAGED1 read seed-corrected z-score -0.3526.

Result for UUUAAGUCCAUCGAUAUUC against NAP1L5 was seed-corrected z-score -0.7278. UAAGUUAAGUCCAGAGUUC against FAM204A gave seed-corrected z-score -0.2564. For UCAUGGGCAGCAAUAGUGC against WIPI1 the result was seed-corrected z-score 0.8397. AAUGUCUCUAGGAUGAAGG against LOC727944 gave seed-corrected z-score -0.4286. With UUGAAGAUCCUCUCGAACC against PXT1 the assay gave seed-corrected z-score 0.7676. With UGGGUAAUUACAGCAAGCC against ABCB1 the assay gave seed-corrected z-score -0.8521. For UUUUGGGAAAUCUAACUGC against S100A11P1 the result was seed-corrected z-score 1.317.

UGCAUACUCACAUCGUUUC against MED13 gave seed-corrected z-score 0.2397. AUUGGGUUGAACAAUGGAG against OR10K2 read seed-corrected z-score -0.6866. Result for UUCGCGUCAACAUCUUCUC against TRPM4 was seed-corrected z-score -0.5651. With UCCGUGACGAGGAACCACU against TTLL8 the assay gave seed-corrected z-score 0.1073. With UUAGAUCUGACCUUUCACC against ZNF436 the assay gave seed-corrected z-score -0.3426. UAUUAACCCAGCAUGGUUU against RPS19 gave seed-corrected z-score 0.501.

The first 6 entries again:

siRNA,target gene,seed-corrected z-score
UAUAAAGAGAAGUCUAGAU,FHL3,0.2531
UUGUUGAGAAAAUGGAUCC,BHMG1,-0.7526
UUUCUGUAUAUUAAGCAAG,SLC35G1,-0.002581
UCCAACUCCAGUCAUUUCC,ENOX2,-0.3057
AUACGUCUAAAGGUAAAGG,RBM45,0.4351
ACACUAACAUGCAAAGUCC,UBALD1,0.3606

Data taken from PubChem BioAssay AID1159506, deposited by NCATS (2015).